Results on 1 molecule are retold here after the supplement of paper PMC6411743.

By UniProt entry, the sequences of proteins in these tests, tags left out.
UniProt P54709, whole entry: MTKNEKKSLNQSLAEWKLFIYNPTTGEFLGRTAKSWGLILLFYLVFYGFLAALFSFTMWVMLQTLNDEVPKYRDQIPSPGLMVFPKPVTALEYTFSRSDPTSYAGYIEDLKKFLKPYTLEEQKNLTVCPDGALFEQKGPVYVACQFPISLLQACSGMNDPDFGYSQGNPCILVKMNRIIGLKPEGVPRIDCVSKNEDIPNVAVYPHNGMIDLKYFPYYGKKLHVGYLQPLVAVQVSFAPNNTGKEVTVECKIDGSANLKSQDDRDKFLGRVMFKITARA

± gives the standard deviation of the averaged measurements. The list shows a part of the results.

In the assay the target is ATP1B3 (UniProt P54709). The assay is described as follows: NP40-soluble protein abundance relative to vehicle (solubility fold change) (ratio); higher = more soluble protein in presence of GTP. The method, then: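 Solubility proteome profiling in Jurkat crude lysate. Lysate was treated with Mg-GTP (0.1-10 mM) for 10 min at room temperature and 3 min at 37 °C, then solubilised with 0.8% NP40 and benzonase, followed by ultracentrifugation. Proteins were quantified by TMT10 LC-MS/MS; the value is the NP40-soluble abundance relative to the NP40-processed vehicle, from 3 independent experiments.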

Consider `Nc1nc2c(ncn2[C@@H]2O[C@H](COP(=O)(O)OP(=O)(O)OP(=O)(O)O)[C@@H](O)[C@H]2O)c(=O)[nH]1` [guanosine triphosphate], for which the NP40-soluble protein abundance runs as follows: (concentration: 0.1mM) 0.905 ± 0.036; (concentration: 0.5mM) 0.922 ± 0.046; (concentration: 1mM) 0.938 ± 0.043; (concentration: 2mM) 0.871 ± 0.054; (concentration: 4mM) 0.854 ± 0.051; (concentration: 6mM) 0.878 ± 0.07. Further, the NP40-soluble protein abundance reads like this: (concentration: 8mM) 0.885 ± 0.05; (concentration: 10mM) 0.875 ± 0.05.
